What follows is the remainder of the data, with few or none of the targets with a hit. Single values of this set are uncertain. This is a selection; strong and weak results do not stand in their true shares.
Each target was assayed with COC(=O)/C=C/c1ccccc1 [methyl cinnamate] (assay: log2 ratio of iodoacetamide-alkyne labeling of the cysteine site, DMSO over compound (competition); higher = stronger covalent engagement of the cysteine by the compound, active = 1 or more). Details: 500 µM; treatment time 1 h; system: HEK293T cell lysate.
Method in brief: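 HEK293T lysate at 2 mg/mL was treated with vehicle or electrophile (500 µM) for 1 h at ambient temperature, then labelled with iodoacetamide alkyne (1 h), clicked to sCIP-TMT reagents, pooled, digested with trypsin overnight at 37 °C, enriched on streptavidin and eluted with acid. Peptides were analysed by Orbitrap Eclipse LC-MS/MS with FAIMS and quantified in FragPipe, using duplicate channels and three replicates, with cysteines quantified in only one replicate excluded. The log2 competition ratio for each cysteine is the mean control-channel reporter intensity divided by the mean compound-channel reporter intensity.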

The chains behind the UniProt entries cited, without tags or fusion partners. Where a name states a change or a piece, a line headed by the entry shows the natural chain unless it says otherwise.
UniProt O43149: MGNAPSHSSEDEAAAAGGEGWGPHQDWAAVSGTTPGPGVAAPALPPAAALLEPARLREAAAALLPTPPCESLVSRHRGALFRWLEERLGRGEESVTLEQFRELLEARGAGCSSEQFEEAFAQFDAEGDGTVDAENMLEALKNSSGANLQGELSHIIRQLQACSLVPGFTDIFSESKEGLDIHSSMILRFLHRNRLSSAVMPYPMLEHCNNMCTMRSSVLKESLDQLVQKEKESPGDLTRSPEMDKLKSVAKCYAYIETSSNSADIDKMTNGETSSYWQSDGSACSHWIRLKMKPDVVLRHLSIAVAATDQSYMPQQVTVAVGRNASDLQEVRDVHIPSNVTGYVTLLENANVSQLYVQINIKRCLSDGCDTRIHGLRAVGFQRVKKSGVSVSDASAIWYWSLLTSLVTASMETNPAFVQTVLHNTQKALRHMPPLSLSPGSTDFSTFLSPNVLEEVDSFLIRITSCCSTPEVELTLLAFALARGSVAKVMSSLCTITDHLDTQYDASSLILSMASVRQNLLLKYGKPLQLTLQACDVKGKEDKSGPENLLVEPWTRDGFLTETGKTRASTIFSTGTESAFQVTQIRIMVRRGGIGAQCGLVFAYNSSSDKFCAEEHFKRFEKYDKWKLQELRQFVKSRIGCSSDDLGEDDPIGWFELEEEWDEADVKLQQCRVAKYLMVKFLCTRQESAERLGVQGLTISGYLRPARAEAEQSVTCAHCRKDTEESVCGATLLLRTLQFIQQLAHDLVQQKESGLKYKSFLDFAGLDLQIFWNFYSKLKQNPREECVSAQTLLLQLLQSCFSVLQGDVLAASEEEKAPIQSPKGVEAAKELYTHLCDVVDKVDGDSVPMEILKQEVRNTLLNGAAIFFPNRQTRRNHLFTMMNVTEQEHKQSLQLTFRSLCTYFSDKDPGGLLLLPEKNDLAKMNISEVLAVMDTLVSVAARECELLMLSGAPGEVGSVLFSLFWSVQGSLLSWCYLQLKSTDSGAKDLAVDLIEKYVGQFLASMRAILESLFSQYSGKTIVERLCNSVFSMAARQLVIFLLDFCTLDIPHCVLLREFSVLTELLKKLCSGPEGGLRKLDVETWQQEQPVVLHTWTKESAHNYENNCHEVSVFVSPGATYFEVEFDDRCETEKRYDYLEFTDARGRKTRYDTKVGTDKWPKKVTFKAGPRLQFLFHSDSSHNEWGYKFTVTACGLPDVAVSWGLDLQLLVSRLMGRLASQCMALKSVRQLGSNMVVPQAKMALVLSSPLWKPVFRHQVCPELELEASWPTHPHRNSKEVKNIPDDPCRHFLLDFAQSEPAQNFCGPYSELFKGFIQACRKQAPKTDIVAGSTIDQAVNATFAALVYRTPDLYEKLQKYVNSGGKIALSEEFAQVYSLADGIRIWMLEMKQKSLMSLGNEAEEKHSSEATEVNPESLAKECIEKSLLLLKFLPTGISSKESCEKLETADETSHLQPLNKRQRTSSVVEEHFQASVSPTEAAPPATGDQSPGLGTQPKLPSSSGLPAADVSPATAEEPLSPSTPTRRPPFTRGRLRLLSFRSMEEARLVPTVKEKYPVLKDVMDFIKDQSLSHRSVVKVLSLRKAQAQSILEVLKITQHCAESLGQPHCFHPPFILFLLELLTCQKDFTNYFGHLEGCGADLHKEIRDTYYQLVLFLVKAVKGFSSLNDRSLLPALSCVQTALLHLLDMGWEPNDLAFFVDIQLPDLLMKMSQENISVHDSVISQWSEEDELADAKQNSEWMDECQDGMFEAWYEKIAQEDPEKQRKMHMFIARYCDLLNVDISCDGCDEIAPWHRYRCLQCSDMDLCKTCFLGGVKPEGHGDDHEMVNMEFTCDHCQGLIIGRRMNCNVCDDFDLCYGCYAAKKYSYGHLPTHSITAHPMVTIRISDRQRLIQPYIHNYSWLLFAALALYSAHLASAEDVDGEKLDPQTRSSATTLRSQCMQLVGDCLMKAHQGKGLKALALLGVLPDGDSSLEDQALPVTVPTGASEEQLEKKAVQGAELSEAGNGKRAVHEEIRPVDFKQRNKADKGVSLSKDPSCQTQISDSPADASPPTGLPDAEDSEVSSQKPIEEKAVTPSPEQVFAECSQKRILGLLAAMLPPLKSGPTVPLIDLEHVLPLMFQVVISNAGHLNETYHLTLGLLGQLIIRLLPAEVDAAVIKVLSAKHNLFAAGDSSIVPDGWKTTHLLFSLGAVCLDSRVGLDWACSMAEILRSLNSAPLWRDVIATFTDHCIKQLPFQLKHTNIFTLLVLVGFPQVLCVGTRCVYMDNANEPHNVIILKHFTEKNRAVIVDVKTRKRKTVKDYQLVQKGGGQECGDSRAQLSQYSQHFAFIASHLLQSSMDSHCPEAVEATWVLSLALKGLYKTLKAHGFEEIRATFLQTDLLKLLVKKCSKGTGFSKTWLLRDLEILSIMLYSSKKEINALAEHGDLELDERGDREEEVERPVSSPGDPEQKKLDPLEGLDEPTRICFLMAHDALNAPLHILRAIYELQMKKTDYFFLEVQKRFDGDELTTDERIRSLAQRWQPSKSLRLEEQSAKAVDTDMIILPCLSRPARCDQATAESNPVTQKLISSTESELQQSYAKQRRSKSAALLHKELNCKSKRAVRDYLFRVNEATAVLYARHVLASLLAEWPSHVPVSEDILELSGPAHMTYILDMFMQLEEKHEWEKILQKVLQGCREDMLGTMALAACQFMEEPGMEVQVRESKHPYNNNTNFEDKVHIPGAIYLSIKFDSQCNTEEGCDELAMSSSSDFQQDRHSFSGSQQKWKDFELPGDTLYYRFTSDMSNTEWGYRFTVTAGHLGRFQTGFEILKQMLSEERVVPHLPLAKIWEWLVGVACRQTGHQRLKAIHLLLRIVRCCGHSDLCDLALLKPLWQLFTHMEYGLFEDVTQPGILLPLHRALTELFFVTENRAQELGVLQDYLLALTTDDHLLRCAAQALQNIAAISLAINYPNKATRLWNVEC
UniProt O15042: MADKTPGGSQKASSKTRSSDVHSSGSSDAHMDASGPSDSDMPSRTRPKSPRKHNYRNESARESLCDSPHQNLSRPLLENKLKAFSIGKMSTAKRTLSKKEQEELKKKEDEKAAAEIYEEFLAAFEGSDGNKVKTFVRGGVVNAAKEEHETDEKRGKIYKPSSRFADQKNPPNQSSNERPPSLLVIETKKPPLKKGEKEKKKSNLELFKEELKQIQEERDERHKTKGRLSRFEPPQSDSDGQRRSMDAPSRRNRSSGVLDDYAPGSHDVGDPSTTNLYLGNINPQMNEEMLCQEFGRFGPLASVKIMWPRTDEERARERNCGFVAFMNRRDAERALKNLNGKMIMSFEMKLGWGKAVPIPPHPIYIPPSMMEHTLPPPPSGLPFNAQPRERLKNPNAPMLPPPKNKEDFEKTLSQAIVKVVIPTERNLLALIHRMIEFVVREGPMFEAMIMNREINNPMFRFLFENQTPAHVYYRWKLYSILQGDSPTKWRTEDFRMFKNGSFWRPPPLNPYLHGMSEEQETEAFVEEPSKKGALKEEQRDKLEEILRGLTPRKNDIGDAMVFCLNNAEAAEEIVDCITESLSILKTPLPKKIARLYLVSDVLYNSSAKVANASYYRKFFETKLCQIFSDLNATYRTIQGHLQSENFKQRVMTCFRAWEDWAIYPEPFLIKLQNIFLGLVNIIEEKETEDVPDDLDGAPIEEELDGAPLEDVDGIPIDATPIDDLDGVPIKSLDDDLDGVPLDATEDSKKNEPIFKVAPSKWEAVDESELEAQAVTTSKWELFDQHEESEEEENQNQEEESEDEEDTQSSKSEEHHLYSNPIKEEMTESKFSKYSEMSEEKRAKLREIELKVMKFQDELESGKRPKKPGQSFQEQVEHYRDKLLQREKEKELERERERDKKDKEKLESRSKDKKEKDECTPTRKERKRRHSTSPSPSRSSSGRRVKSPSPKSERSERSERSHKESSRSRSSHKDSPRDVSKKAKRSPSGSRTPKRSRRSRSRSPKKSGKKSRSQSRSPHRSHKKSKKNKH
UniProt O15294: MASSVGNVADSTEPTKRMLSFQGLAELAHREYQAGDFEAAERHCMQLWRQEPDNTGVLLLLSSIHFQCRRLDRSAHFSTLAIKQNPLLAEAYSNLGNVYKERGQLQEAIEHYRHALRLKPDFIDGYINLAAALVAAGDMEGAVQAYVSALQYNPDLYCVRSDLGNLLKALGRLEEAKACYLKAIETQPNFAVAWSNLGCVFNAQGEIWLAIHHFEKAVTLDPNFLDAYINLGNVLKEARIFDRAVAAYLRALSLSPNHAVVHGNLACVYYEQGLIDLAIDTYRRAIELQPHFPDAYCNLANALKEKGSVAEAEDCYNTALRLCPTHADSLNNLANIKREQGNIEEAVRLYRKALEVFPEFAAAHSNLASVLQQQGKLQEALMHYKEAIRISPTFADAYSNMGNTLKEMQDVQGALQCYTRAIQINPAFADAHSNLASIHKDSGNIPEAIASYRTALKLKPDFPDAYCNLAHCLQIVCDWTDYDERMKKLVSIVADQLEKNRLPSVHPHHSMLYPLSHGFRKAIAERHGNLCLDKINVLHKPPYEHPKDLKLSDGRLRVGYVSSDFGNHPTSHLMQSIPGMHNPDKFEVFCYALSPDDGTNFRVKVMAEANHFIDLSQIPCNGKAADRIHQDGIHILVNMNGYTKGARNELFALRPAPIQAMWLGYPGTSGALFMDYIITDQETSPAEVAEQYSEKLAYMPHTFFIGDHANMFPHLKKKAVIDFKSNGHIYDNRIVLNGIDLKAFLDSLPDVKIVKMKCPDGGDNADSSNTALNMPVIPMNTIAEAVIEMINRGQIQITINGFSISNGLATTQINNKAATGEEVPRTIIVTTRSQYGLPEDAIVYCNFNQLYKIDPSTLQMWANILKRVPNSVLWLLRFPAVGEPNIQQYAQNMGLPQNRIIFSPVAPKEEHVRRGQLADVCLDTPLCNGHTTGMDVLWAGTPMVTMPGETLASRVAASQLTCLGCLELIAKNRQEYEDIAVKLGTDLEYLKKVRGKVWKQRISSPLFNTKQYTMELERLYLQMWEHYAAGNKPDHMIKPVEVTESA
UniProt O15371, whole entry, looked up: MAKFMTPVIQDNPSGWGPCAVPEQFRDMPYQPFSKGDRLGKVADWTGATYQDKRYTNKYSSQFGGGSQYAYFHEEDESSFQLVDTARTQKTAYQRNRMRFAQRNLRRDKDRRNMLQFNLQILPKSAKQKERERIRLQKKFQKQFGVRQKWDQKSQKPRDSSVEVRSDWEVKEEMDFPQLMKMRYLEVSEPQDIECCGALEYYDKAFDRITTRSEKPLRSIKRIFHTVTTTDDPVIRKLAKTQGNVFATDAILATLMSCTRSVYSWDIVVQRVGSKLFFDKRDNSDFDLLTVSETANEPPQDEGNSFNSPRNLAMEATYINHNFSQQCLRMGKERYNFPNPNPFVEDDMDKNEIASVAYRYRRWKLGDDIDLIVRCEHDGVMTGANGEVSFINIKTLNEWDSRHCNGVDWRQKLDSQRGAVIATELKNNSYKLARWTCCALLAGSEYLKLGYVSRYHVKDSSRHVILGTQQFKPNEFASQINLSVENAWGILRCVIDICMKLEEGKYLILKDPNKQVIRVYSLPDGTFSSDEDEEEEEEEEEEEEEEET
UniProt O14964, whole entry, looked up: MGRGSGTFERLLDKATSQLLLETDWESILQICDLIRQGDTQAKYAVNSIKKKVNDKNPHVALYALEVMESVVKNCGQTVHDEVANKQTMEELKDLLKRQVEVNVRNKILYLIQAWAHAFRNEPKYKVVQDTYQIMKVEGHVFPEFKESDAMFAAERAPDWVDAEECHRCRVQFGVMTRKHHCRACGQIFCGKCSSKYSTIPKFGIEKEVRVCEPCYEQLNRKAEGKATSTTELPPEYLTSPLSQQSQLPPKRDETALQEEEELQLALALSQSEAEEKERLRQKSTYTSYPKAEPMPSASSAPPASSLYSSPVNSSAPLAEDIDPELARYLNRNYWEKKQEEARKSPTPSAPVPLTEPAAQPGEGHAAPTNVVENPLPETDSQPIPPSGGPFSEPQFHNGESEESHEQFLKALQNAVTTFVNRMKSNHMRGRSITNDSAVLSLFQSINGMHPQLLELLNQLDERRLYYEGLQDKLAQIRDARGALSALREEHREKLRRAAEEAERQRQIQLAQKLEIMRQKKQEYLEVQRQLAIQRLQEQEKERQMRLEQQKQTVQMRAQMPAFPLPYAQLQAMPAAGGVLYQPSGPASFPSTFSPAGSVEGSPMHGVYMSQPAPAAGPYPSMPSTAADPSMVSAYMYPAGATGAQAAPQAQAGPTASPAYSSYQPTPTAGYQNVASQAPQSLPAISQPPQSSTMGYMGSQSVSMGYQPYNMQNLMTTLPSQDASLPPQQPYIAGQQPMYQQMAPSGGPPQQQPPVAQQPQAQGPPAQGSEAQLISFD
UniProt O14880: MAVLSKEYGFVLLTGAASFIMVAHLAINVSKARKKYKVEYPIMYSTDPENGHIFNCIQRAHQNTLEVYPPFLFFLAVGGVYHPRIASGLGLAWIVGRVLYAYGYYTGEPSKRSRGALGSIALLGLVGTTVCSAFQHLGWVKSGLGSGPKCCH
UniProt O00244: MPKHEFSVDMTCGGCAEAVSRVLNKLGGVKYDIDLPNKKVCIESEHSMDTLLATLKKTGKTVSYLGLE

log2 ratio of iodoacetamide-alkyne labeling, inactive:
CD3EAP C150 (UniProt O15446) 0.221
UniProt O00148_C223 0.105
CLIC1 C59 (UniProt O00299) -0.0618
ZZEF1 C162 (UniProt O43149) 0.225
UBE2C C114 (UniProt O00762) 0.461
PFAS C270 (UniProt O15067) 0.25
SURF4 C32 (UniProt O15260) 0.387
PRPF4 C237 (UniProt O43172) 0.253
POLRMT C765 (UniProt O00411) 0.219
TRAFD1 C476 (UniProt O14545) 0.66
UniProt O15042_C563 -0.0668
SPTBN2 C1140 (UniProt O15020) 0.0946
DNM1L C367 (UniProt O00429) 0.0777
NKRF C246 (UniProt O15226) 0.255
PFAS C1338 (UniProt O15067) 0.0402
XPO1 C34 (UniProt O14980) 0.0581
UniProt O00567_C211 0.29
OGT C323 (UniProt O15294) -0.159
MRPS12 C93 (UniProt O15235) 0.107
CD3EAP C86 (UniProt O15446) -0.00342
PHGDH C116 (UniProt O43175) -0.0364
PSMD11 C289 (UniProt O00231) 0.409
EIF3D C327 (UniProt O15371) -0.074
HGS C166 (UniProt O14964) 0.0557
IRS4 C381 (UniProt O14654) 0.126
EIF3D C195 (UniProt O15371) -0.019
OGT C620 (UniProt O15294) 0.292
PEX7 C5 (UniProt O00628) 0.21
PPM1G C241 (UniProt O15355) 0.229
AP3B1 C507 (UniProt O00203) 0.121
HGS C215 (UniProt O14964) 0.0123
POLR3A C883 (UniProt O14802) 0.222
MGST3 C131 (UniProt O14880) -0.168
PRPF4 C299 (UniProt O43172) 0.136
DYNC1LI2 C191 (UniProt O43237) 0.33
ATOX1 C41 (UniProt O00244) 0.213
EIF3CL C79 (UniProt B5ME19) 0.36
POLRMT C535 (UniProt O00411) -0.131

A section taken from the entries so far, for reference:
log2 ratio of iodoacetamide-alkyne labeling, inactive:
EIF3D C327 (UniProt O15371) -0.074
HGS C166 (UniProt O14964) 0.0557

Reference: the supplement of paper PMC11006884
